The other results are listed elsewhere or left out.
What follows are sequences tested against T1, OsSMF1 (Oryza sativa, UniProt Q6ZLB0 1-436) (assay: protein-binding microarray (RPBM); PBS, 2% BSA, 51.3 ng/ul salmon testes DNA, 50 uM zinc acetate, 200 nM TF, 25 C, 1 h; high values mean tight binding). Conditions: protein: recombinant; tags: N-terminal polyhistidine and DsRed monomer fusion (pET32a); chain copies: 2; label: CyDye5-dUTP incorporated in the synthesized complementary strand; 3' TTTTT single-stranded linker to array surface; dsDNA, one strand shown.
T1 sequence: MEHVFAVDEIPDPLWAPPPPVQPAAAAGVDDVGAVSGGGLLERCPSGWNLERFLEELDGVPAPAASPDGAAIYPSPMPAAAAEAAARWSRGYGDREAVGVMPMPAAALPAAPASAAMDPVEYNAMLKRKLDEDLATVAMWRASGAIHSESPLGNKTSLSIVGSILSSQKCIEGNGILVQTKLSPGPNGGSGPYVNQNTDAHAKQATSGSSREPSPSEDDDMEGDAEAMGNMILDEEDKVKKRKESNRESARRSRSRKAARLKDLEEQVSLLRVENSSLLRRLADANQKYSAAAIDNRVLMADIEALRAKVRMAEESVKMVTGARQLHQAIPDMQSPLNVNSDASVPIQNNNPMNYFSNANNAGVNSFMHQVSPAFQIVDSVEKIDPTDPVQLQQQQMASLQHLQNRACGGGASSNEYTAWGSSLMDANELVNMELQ
Procedure, shortened: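 Binding signal is reported as fluorescence intensity per feature (arbitrary units) from an Axon 4000B scanner. Incubation used 200 nM of each Ni–NTA-purified, N-terminally polyhistidine- and DsRed-fused transcription factor from E. coli BL21-CodonPlus on a double-stranded custom Agilent array for 1 h at 25 °C, with 50 µM zinc acetate in the buffer, followed by washing.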

First: AAGTAAGATGCCACACACCATAGTCTGCTTCACTGTCAACCGGAGTCACCTAGTGCAG
Second: GTTTCCGTCGTTGTTTGCTCCGCCACGAGGGCGCGCTACACGGAGTCACCTAGTGCAG
The binding signal of the first is lower: 3200 fluorescence intensity (a.u.) for the first, 3350 fluorescence intensity (a.u.) for the second.

Going from “TAGTCCAATCCATCGTGTTTCCACGTGGCGACCCAACCCCCGGAGTCACCTAGTGCAG” to “TGGAAATTACCATTTGCCTACTCCCATCGTGTCACCAGAACGGAGTCACCTAGTGCAG”, the binding signal falls from 40000 fluorescence intensity (a.u.) to 4220 fluorescence intensity (a.u.).

Compared with “CTTAAATTACAAAGAACGACACAAAGTGTCCTAGAATGAACGGAGTCACCTAGTGCAG”, “AGCCCGGTGACGGTGCGGGAGTGCAACACCAACTGGTTCGCGGAGTCACCTAGTGCAG” is lower in binding signal: 4340 fluorescence intensity (a.u.) for the first, 4220 fluorescence intensity (a.u.) for the second.

Compared with “AGGCAACAGACTCACCGTAGTAGATGGTGACGTTAACTCTCGGAGTCACCTAGTGCAG”, “AAACTGCCAAAACCGCCACGTCCGTAGCACGCTAAAACCTCGGAGTCACCTAGTGCAG” is higher in binding signal: 3890 fluorescence intensity (a.u.) for the first, 8860 fluorescence intensity (a.u.) for the second.

Going from “CATGAATTTCTTTGTTCATCCAAGGGTAAAATGGTCATTTCGGAGTCACCTAGTGCAG” to “CGTGTCGTCCCAATCCGCCACGTCCTCGCCCAAAGCTCCACGGAGTCACCTAGTGCAG”, the binding signal rises from 3920 fluorescence intensity (a.u.) to 9620 fluorescence intensity (a.u.).

Going from “CGCACGCAACGCCACGTCAGCAATAATCCGCGGTGTCGCTCGGAGTCACCTAGTGCAG” to “GCGCTAAATCCACTTGTCGACGTGGATGCTCTATGTTTCTCGGAGTCACCTAGTGCAG”, the binding signal falls from 17900 fluorescence intensity (a.u.) to 8620 fluorescence intensity (a.u.).

Compared with “CAATGAAAGAGAGCGATGGCGCGTGTTTATATTTCGCTATCGGAGTCACCTAGTGCAG”, “CCTCTACATTTCGTTTTAGATCCGCGCCCATGTGGCTATACGGAGTCACCTAGTGCAG” is lower in binding signal: 3850 fluorescence intensity (a.u.) for the first, 3610 fluorescence intensity (a.u.) for the second.

Going from “GGATGGAGTTAGTACGTCATAGATTCGATACTCCATACGTCGGAGTCACCTAGTGCAG” to “ATATGTGCTGGCCGCTGAGGTATACAGTATATGGGCCAACCGGAGTCACCTAGTGCAG”, the binding signal rises from 3370 fluorescence intensity (a.u.) to 3580 fluorescence intensity (a.u.).

Compared with “ATAGCCCGTCCTCTTCATGGACCACGGTGTACAGCTTGCTCGGAGTCACCTAGTGCAG”, “GCCCTCGCGCCACGTGGAGGTCACCTCCCATTTCCTCGTCCGGAGTCACCTAGTGCAG” is higher in binding signal: 3980 fluorescence intensity (a.u.) for the first, 13200 fluorescence intensity (a.u.) for the second.

Compared with “TTTTAATAGCCGGCCGTCGCCGTGGCGACCATCGTCATCGCGGAGTCACCTAGTGCAG”, “TAAAATTACTAAAACAATGTGATCATCATATGCAGGCTTCCGGAGTCACCTAGTGCAG” is lower in binding signal: 4040 fluorescence intensity (a.u.) for the first, 3150 fluorescence intensity (a.u.) for the second.

Compared with “GCTCCTCCCGTGCCGCCGCCGTCTCGCGCCAGTGCGTCTCCGGAGTCACCTAGTGCAG”, “GATTGGCTGGCCCGGTGTCATGGAGTGGAGCCACGTGACACGGAGTCACCTAGTGCAG” is higher in binding signal: 3330 fluorescence intensity (a.u.) for the first, 4300 fluorescence intensity (a.u.) for the second.

Compared with “CTCGCCTCCCGCGCGCGCCGCCTCTTCCGTCGACGTCGCGCGGAGTCACCTAGTGCAG”, “GATCCGGCGCGATAAAATGCGAGCCTCTCTCTCTCCCGGGCGGAGTCACCTAGTGCAG” is lower in binding signal: 3460 fluorescence intensity (a.u.) for the first, 3160 fluorescence intensity (a.u.) for the second.

Compared with “TCAACACTGAATACCATGTCTATCATCTAACACAATCGATCGGAGTCACCTAGTGCAG”, “CAATCATTCAAGTCTAAGACAGTGAATTGAGTTAGAGTAACGGAGTCACCTAGTGCAG” is higher in binding signal: 6720 fluorescence intensity (a.u.) for the first, 30800 fluorescence intensity (a.u.) for the second.

Compared with “TTTTGTTCACTGATTTATGATTTATTTAAGAAGAGAGAGACGGAGTCACCTAGTGCAG”, “AGGAGCGAATTTCACAAGGGAATTGCGTGGCGTGTCGACTCGGAGTCACCTAGTGCAG” is lower in binding signal: 18500 fluorescence intensity (a.u.) for the first, 4380 fluorescence intensity (a.u.) for the second.

Going from “AAATGCTGACTGGACTGCCACGTGTACGCCACGTAGACCACGGAGTCACCTAGTGCAG” to “GTAAATGGAGGCCGGCCCGGCCCATTTCAAACTAAATGTGCGGAGTCACCTAGTGCAG”, the binding signal falls from 45400 fluorescence intensity (a.u.) to 3250 fluorescence intensity (a.u.).

Compared with “CACCACCACGTGTTCGATCGCGTCCTCCAAGCCCCAGCACCGGAGTCACCTAGTGCAG”, “GTTGTTGCAGCTTGGAAGAGTCTATTGCCGGATTCGTCACCGGAGTCACCTAGTGCAG” is lower in binding signal: 3680 fluorescence intensity (a.u.) for the first, 3230 fluorescence intensity (a.u.) for the second.

Going from “CACGCTCTGGCAACAATCTCTCCACGCAGACACGTCACGCCGGAGTCACCTAGTGCAG” to “CTCCCTCCACACATCAGTTGTGCCCTCCTCATTTGCTGGTCGGAGTCACCTAGTGCAG”, the binding signal falls from 22700 fluorescence intensity (a.u.) to 3210 fluorescence intensity (a.u.).

Going from “TCTCTCCTCCTCCCATCTCCGCTTCCCTTCTTCTTCTTCTCGGAGTCACCTAGTGCAG” to “ACCAACGAATTATCTGTTGCCTAAGACTGTGACTCACTAGCGGAGTCACCTAGTGCAG”, the binding signal falls from 19000 fluorescence intensity (a.u.) to 4600 fluorescence intensity (a.u.).

Going from “AAAGCCCTTACGGGGAAAAGAAACCATGATGCTGACTGGTCGGAGTCACCTAGTGCAG” to “AATTTCTACGCCCATGTCAGCGGTGACGACGCGCGCGCGTCGGAGTCACCTAGTGCAG”, the binding signal falls from 5720 fluorescence intensity (a.u.) to 4430 fluorescence intensity (a.u.).

Going from “AAATTCTGTTCTTGCCTCTGACGAAGCTGTCCATATAGTACGGAGTCACCTAGTGCAG” to “AAACCGATCAAAATCCCGGACGCCACCGCCGGCTCTCGCGCGGAGTCACCTAGTGCAG”, the binding signal rises from 4240 fluorescence intensity (a.u.) to 10500 fluorescence intensity (a.u.).

Going from “TGCCATGTTTCTTGCATAGTTGCTGATTCTATCACTTCCTCGGAGTCACCTAGTGCAG” to “AGAGGATGACGATGGCGACGGCGGCAGCGGCGGAGGAGGCCGGAGTCACCTAGTGCAG”, the binding signal falls from 3500 fluorescence intensity (a.u.) to 3280 fluorescence intensity (a.u.).

— publication PMC7819943, “Rice protein-binding microarrays: a tool to detect cis-acting elements near promoter regions in rice”
